Results as given in doi:10.1101/2025.02.07.636424.
Results are given in words; binding and its absence hold for the method and conditions named. In cells and extracts the contact can be indirect. Some binding calls cover weakened binding; strength is not graded here.

By UniProt entry, the sequences of proteins in these tests, tags left out. Where a name states a change or a piece, a line headed by the entry shows the natural chain unless it says otherwise. Chains listed by the source or under a name are the forms on record and can include a tag or linker.
N-terminally EYFP-tagged human PML-V isoform (P29590, form named): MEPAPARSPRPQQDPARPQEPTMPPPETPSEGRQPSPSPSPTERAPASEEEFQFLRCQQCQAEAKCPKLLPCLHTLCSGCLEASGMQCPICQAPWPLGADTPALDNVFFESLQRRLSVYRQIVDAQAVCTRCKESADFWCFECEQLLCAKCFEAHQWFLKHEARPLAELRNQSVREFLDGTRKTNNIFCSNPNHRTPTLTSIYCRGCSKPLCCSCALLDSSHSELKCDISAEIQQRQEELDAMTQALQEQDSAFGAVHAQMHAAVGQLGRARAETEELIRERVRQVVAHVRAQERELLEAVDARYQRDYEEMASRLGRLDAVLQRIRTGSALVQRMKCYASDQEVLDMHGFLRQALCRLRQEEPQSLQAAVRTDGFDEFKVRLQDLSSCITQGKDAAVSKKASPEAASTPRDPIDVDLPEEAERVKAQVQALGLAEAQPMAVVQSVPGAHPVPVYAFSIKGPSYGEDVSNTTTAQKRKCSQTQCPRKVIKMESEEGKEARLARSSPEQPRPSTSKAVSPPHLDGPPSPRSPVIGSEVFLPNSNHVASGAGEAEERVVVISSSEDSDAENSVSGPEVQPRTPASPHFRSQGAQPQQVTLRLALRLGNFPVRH

Target: N-terminally EYFP-tagged human PML-V isoform (human) (UniProt P29590)
Assay: co-IP

## HAdV-C5 early protein E1B-55K (from UniProt P03243 1-496)
  binding: binds
